Record: PubChem BioAssay AID504764 (Drosophila RNAi Screening Center, 2011)

Assay: 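Knock-downs that raise or lower a Notch target reporter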 (primary screen)
Cell system: Drosophila Kc167 cells
Reagent: long dsRNA against Drosophila genes
Timing: about 5 days (4 days dsRNA, then 24 h after transfection)
Treatment: transfection of constitutively active membrane-tethered Notch lacking the extracellular domain, read 24 h later
Measured: 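Firefly luciferase from an E(spl)m3 reporter with active Notch, plus control-promoter and uninduced reporter wells for normalisation; unnormalised counts, duplicate wells a and b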
Scale: induced reporter light, run 1, well a and induced reporter light, run 1, well b: higher = more light from the Notch target reporter with active Notch; control promoter light, run 1, well a and control promoter light, run 1, well b: higher = more light from the viral control promoter (cell number, transfection, viability); uninduced reporter light, run 1, well a: higher = more light from the Notch target reporter without active Notch
Hit rule: 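Wells with low control signal or poorly matching duplicates excluded; duplicates averaged; per source plate, z beyond ±2 for induced/control log2 ratio or beyond ±1.8 for induced/uninduced marks a hit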
Calls: active = modifier hit (raised or lowered Notch signal); inactive = not a hit
In all, the deposit lists about 22,000 reagents; this is an unselected part of those with a known target gene and a result. In the full data, 403 (1.9%) are marked active. 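Unnormalised raw counts per well; ratio z-scores behind the hit calls and whether each hit raises or lowers signal are not deposited.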 Names joined by + are all predicted targets of the reagent. Not given: the amount of reagent.

| target gene | dsRNA | induced reporter light, run 1, well a | induced reporter light, run 1, well b | control promoter light, run 1, well a | control promoter light, run 1, well b | uninduced reporter light, run 1, well a | activity call |
| --- | --- | --- | --- | --- | --- | --- | --- |
| CG11786 | DRSC14389 | 1.55e5 | 1.28e5 | 1.85e5 | 1.67e5 | 11365 | inactive |
| CG11504 | DRSC14318 | 1.71e5 | 1.78e5 | 2.46e5 | 2.22e5 | 11655 | inactive |
| CG11788 | DRSC06084 | 45530 | 36640 | 31540 | 33070 | 4850 | inactive |
| Scgalpha (Sarcoglycan alpha) | DRSC03076 | 1.74e5 | 1.94e5 | 1.09e5 | 1.64e5 | 25500 | inactive |
| CG14095 | DRSC10098 | 1.09e5 | 94895 | 82530 | 77845 | 8985 | inactive |
| east (enhanced adult sensory threshold) | DRSC18770 | 58000 | 72320 | 1.17e5 | 1.01e5 | 5100 | inactive |
| CR42785 (pseudo) | DRSC04962 | 51125 | 71100 | 1.09e5 | 1.19e5 | 3555 | inactive |
| TrpRS (Tryptophanyl-tRNA synthetase) | DRSC14097 | 76295 | 1.09e5 | 1.18e5 | 1.16e5 | 8760 | inactive |
| Gsc (Goosecoid) | DRSC00755 | 84760 | 91165 | 78005 | 36985 | 7595 | inactive |
| Ubr3 (Ubr3 ubiquitin ligase) | DRSC17987 | 1.70e5 | 1.59e5 | 1.87e5 | 2.25e5 | 11745 | inactive |
| Ubr3 (Ubr3 ubiquitin ligase) | DRSC17997 | 1.35e5 | 1.53e5 | 3.30e5 | 3.49e5 | 11215 | inactive |
| CG33272 | DRSC09116 | 1.95e5 | 1.71e5 | 1.22e5 | 1.04e5 | 16020 | inactive |
| CG10650 | DRSC02085 | 1.87e5 | 2.19e5 | 1.83e5 | 1.92e5 | 18015 | inactive |
| Pdha (Pyruvate dehydrogenase E1 alpha subunit) | DRSC18413 | 1.19e5 | 1.32e5 | 2.58e5 | 2.50e5 | 9730 | inactive |
| NELF-B | DRSC17734 | 1.40e5 | 1.04e5 | 1.62e5 | 1.48e5 | 13435 | inactive |
| Grl43a (Gustatory receptor-like 43a) | DRSC06383 | 1.92e5 | 2.14e5 | 3.03e5 | 2.64e5 | 19170 | inactive |
| ND-B14.5B (NADH dehydrogenase (ubiquinone) B14.5 B subunit) | DRSC00346 | 1.88e5 | 1.68e5 | 1.63e5 | 1.40e5 | 10675 | inactive |
| CG42816 + CG42815 | DRSC11230 | 1.64e5 | 1.76e5 | 2.14e5 | 1.96e5 | 9310 | inactive |
| CG17734 | DRSC15256 | 72850 | 77755 | 66965 | 48390 | 3985 | inactive |
| CG14607 | DRSC12551 | 30410 | 28755 | 50445 | 37215 | 4082 | inactive |
| Pp1alpha-96A (Protein phosphatase 1alpha at 96A) | DRSC16795 | 1.82e5 | 2.20e5 | 2.23e5 | 2.26e5 | 15185 | inactive |
| Lnpk (Lunapark) | DRSC07254 | 1.66e5 | 1.32e5 | 1.29e5 | 1.49e5 | 11890 | inactive |
| fsd (fates-shifted) | DRSC06166 | 1.08e5 | 1.02e5 | 1.40e5 | 1.04e5 | 10380 | inactive |
| Mekk1 | DRSC16302 | 2.02e5 | 2.54e5 | 2.84e5 | 3.49e5 | 16135 | inactive |
| Mekk1 | DRSC16303 | 1.86e5 | 1.52e5 | 1.85e5 | 1.71e5 | 12030 | inactive |
| I-t (inhibitor-t) | DRSC16713 | 1.13e5 | 1.07e5 | 1.06e5 | 71400 | 6370 | inactive |
| Pis (Phosphatidylinositol synthase) | DRSC20178 | 40395 | 30970 | 32715 | 30270 | 3705 | inactive |
| Ets21C (Ets at 21C) | DRSC00751 | 94265 | 1.06e5 | 93020 | 51770 | 9425 | inactive |
| Pglym78 (Phosphoglyceromutase 78) | DRSC16787 | 1.91e5 | 2.37e5 | 2.63e5 | 2.81e5 | 12235 | inactive |
| Drl-2 (Derailed 2) | DRSC05393 | 1.52e5 | 2.00e5 | 2.04e5 | 1.94e5 | 15578 | inactive |
| Drl-2 (Derailed 2) | DRSC06155 | 80540 | 83635 | 1.06e5 | 1.15e5 | 9135 | inactive |
| Drl-2 (Derailed 2) | DRSC06858 | 1.02e5 | 83775 | 87130 | 90425 | 8890 | inactive |
| CG13613 | DRSC14616 | 1.37e5 | 1.46e5 | 1.89e5 | 1.73e5 | 12710 | inactive |
| CG3368 | DRSC15485 | 1.80e5 | 1.91e5 | 2.57e5 | 2.53e5 | 13460 | inactive |
| CG18343 | DRSC06726 | 99960 | 84555 | 1.39e5 | 1.81e5 | 12310 | active |
| VhaM9.7-a (Vacuolar H[+] ATPase M9.7 subunit a) | DRSC08289 | 1.34e5 | 1.48e5 | 3.03e5 | 1.69e5 | 11665 | inactive |
| CG4991 | DRSC19928 | 1.16e5 | 1.36e5 | 98625 | 40130 | 10020 | inactive |
| CG33777 | DRSC08107 | 2.00e5 | 1.77e5 | 2.25e5 | 2.61e5 | 14638 | inactive |
| ova (ovaries absent) | DRSC02879 | 2.00e5 | 2.13e5 | 1.49e5 | 1.72e5 | 16810 | inactive |
| Cdc6 (Cell division cycle 6) | DRSC10563 | 97035 | 83310 | 64405 | 20600 | 8170 | inactive |
| CG5342 | DRSC15776 | 87005 | 94390 | 99515 | 66675 | 7325 | inactive |
| Zcchc7 (Zinc finger CCHC-type containing 7) | DRSC11099 | 96920 | 92300 | 65320 | 68880 | 8225 | inactive |
| dpa (disc proliferation abnormal) | DRSC07604 | 1.09e5 | 1.03e5 | 1.13e5 | 1.25e5 | 9470 | inactive |
| CG13837 | DRSC14687 | 1.65e5 | 1.93e5 | 1.80e5 | 1.90e5 | 13405 | inactive |
| Nbr (Nibbler) | DRSC03166 | 2.48e5 | 2.16e5 | 1.97e5 | 1.68e5 | 19640 | inactive |
| Tbc1d22 (TBC1 domain family member 22) | DRSC15867 | 1.65e5 | 1.68e5 | 2.22e5 | 2.02e5 | 14700 | inactive |
| CG12974 | DRSC11684 | 1.31e5 | 1.24e5 | 1.45e5 | 1.45e5 | 7750 | inactive |
| PhKgamma (Phosphorylase kinase gamma) | DRSC20268 | 2.11e5 | 2.15e5 | 2.29e5 | 2.33e5 | 14150 | inactive |
| CG33090 | DRSC01908 | 2.03e5 | 2.06e5 | 1.78e5 | 2.30e5 | 16965 | inactive |
| Cndp2 (Cytosolic non-specific dipeptidase 2) | DRSC04873 | 1.82e5 | 1.44e5 | 1.43e5 | 1.46e5 | 10465 | inactive |
| GstE14 (Glutathione S transferase E14) | DRSC06881 | 83200 | 80895 | 1.07e5 | 1.02e5 | 7370 | inactive |
| Uck (Uridine-cytidine kinase) | DRSC13661 | 1.77e5 | 1.96e5 | 1.87e5 | 2.13e5 | 13390 | inactive |
| Uck (Uridine-cytidine kinase) | DRSC16028 | 1.52e5 | 1.38e5 | 1.80e5 | 1.87e5 | 12580 | inactive |
| CG33695 + cana | DRSC01163 | 89000 | 70450 | 1.19e5 | 1.30e5 | 6390 | inactive |
| CG33695 + cana | DRSC03503 | 1.39e5 | 1.37e5 | 75480 | 72490 | 16412 | inactive |
| Ac3 (Adenylate cyclase 3) | DRSC03692 | 2.23e5 | 1.96e5 | 1.74e5 | 1.79e5 | 15470 | inactive |
| CG3860 | DRSC04425 | 1.36e5 | 1.42e5 | 1.57e5 | 1.57e5 | 13030 | inactive |
| CG30195 | DRSC04155 | 1.55e5 | 1.57e5 | 1.70e5 | 1.55e5 | 11380 | inactive |
| CG15027 | DRSC19608 | 90855 | 84925 | 1.20e5 | 95765 | 12470 | inactive |
| sna (snail) | DRSC03613 | 1.23e5 | 1.44e5 | 1.32e5 | 1.41e5 | 9370 | inactive |
| mthl14 (methuselah-like 14) | DRSC07865 | 1.93e5 | 1.60e5 | 1.78e5 | 1.42e5 | 16620 | inactive |
| Syt1 (Synaptotagmin 1) | DRSC00156 | 1.15e5 | 79775 | 1.29e5 | 1.37e5 | 6805 | inactive |
| Syt1 (Synaptotagmin 1) | DRSC00157 | 1.13e5 | 1.17e5 | 1.22e5 | 1.01e5 | 8015 | inactive |
| Syt1 (Synaptotagmin 1) | DRSC00158 | 1.20e5 | 79885 | 1.53e5 | 1.53e5 | 8325 | inactive |
| Syt1 (Synaptotagmin 1) | DRSC00840 | 1.97e5 | 1.68e5 | 1.87e5 | 1.74e5 | 12065 | inactive |
